Laboratory results: PubChem BioAssay AID1053208 (Peter MacCallum Cancer Centre, 2014)

- Test: 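Genes whose silencing cuts survival of bone tumour cells only with doxorubicin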 (primary screen)
- System: mouse osteosarcoma cells, early-passage culture from an engineered mouse model of fibroblastic bone tumour
- Reagent: siRNA pool against mouse genes, 40 nM
- Time to read-out: about 120 h (48 h before drug, then 72 h with drug)
- Treatment: doxorubicin 100 nM for 72 h, roughly 30-40% inhibitory dose
- Measurement: 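Viability read as ATP luminescence after 72 h of 100 nM doxorubicin or none, duplicate wells averaged, scaled to non-targeting siRNA, then expressed as robust z-scores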
- Scale: viability z-score with doxorubicin: higher = more viable cells under doxorubicin; viability z-score without drug: higher = more viable cells with knock-down alone
- Active means: 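a pool counts as active when its viability z-score with doxorubicin is -2 or below and its z-score without drug lies between -2 and 2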
In all, the deposit lists about 17,000 reagents; shown is a part drawn at random. 788 of all reagents (4.7%) count as active. 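Calls rest on z-score classes alone; an extra cut-off of viability at most 70% of control was not applied to them.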 Not all columns of the deposit are shown. Reagent sequences are not shown.

gene knocked down	combined z-score class	viability z-score with doxorubicin	viability z-score without drug	Outcome
Tceal5 (transcription elongation factor A (SII)-like 5)	high cell count without drug only	1.69	2.53	inactive
Pcdhb18 (protocadherin beta 18)	high cell count with doxorubicin only	2.59	0.84	inactive
Cyb5r3 (cytochrome b5 reductase 3)	no change with or without drug	1.57	-0.17	inactive
Sirt3 (sirtuin 3)	no change with or without drug	0.34	0.17	inactive
Abhd12 (abhydrolase domain containing 12)	no change with or without drug	0	0.84	inactive
Slc26a11	no change with or without drug	0.34	1.18	inactive
Kif21a (kinesin family member 21A)	no change with or without drug	-0.67	-0.17	inactive

Next part (2 carried over from the part before).
gene knocked down	combined z-score class	viability z-score with doxorubicin	viability z-score without drug	Outcome
Slc26a11	no change with or without drug	0.34	1.18	inactive
Kif21a (kinesin family member 21A)	no change with or without drug	-0.67	-0.17	inactive
Scnn1b (sodium channel, nonvoltage-gated 1 beta)	no change with or without drug	-0.45	0.51	inactive
Efemp2	no change with or without drug	-1.8	0.34	inactive
Setd4 (SET domain containing 4)	no change with or without drug	-0.22	-0.51	inactive
Gemin8 (gem nuclear organelle associated protein 8)	no change with or without drug	0.9	0.34	inactive
Lage3 (L antigen family, member 3)	no change with or without drug	0.11	1.18	inactive
Xcr1 (chemokine (C motif) receptor 1)	no change with or without drug	-0.22	0.17	inactive
Trmt44 (tRNA methyltransferase 44)	no change with or without drug	0.22	1.52	inactive
Osbpl6 (oxysterol binding protein-like 6)	low cell count with doxorubicin only	-2.14	-1.18	active
Gramd1a (GRAM domain containing 1A)	low cell count with and without drug	-2.7	-9.95	inactive
Mlf1 (myeloid leukemia factor 1)	no change with or without drug	-0.22	-0.17	inactive
Ddb2 (damage specific DNA binding protein 2)	no change with or without drug	1.24	-0.17	inactive
Plpp1 (phospholipid phosphatase 1)	no change with or without drug	1.57	1.18	inactive
Wdr83 (WD repeat domain containing 83)	no change with or without drug	0.45	1.18	inactive
